Results are given in words; binding and its absence hold for the method and conditions named. Some results given as binding are weak or reduced against the parent protein; the word gives no strength.
Biological target: PD-L1 expressed on the cell surface (CHO/PD-L1 cells) (UniProt Q9NZQ7)
Test: flow cytometry (FACS) on CHO cells expressing PD-L1, MFI

Protein sequences, listed by entry. Tags and fused reporters are not part of them. Residues count along the entry.
UniProt Q9NZQ7, residues 19-290: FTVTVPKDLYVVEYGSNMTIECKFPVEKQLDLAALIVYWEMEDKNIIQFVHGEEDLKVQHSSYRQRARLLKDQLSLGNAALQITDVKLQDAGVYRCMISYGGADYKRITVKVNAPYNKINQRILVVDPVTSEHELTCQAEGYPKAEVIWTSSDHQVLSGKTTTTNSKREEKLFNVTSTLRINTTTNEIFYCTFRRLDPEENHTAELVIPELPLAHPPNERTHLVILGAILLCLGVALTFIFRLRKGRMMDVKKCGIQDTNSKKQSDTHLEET

B1: hPD-L1 MAB-2F (antibody) (antibody, V domains shown)
VH: EVQLVESGGGLVQPGGSLRLSCAASGFTFSSYTMSWVRQAPGKGLEWVAYISIKGGTTYYPDTVKGRFTISRDNAKNTLYLQMNSLKTEDTAVYYCARQGLPYYGDYWGQGTLVTVSS
VL: DIQMTQSPSSLSASVGDRVTITCKASQDVNEAVAWYQQKPGKAPKLLIYWASTRHTGVPSRFSGSGSGTDFTLTISSLQPEDFATYYCQQHYNTPLTFGQGTKVEIK
For B1, which binding is on record?
Its binding is “binds”.

Reference: US20230094162A1
